The list shows a part of the results.
The molecules below were run on T1, CTL2-GFP (C. trachomatis L2/434/Bu, GFP-expressing). Conditions: bulk GFP, single well; 28.5 h, 10 µM; inhibitor.
T1 construct: L2/434/Bu, GFP-expressing
Set-up: species or system HeLa; Intracellular C. trachomatis growth in HeLa cells, bulk GFP fluorescence relative to DMSO

Compared with `Cc1nc2ccccc2c(C)c1CC(=O)N(C)Cc1cnn(C)c1` [CBK304895], `Cc1cc(C(=O)NCCn2ccc(C)n2)c2cccc(Cl)c2n1` [CBK282549] is higher in “% of control remaining” value: 102.864% for the first, 128.328% for the second.

First: NS(=O)(=O)c1ccc(NC(=O)CSc2ccc3ccccc3c2)cc1 [CBK268203]
Second: C#CCNC(=O)c1nn(Cc2ccc(S(=O)(=O)N(C)OC)cc2)c2ccccc12 [CBK047985]
The “% of control remaining” value of the first is lower: 91.9643% for the first, 105.46% for the second.

Going from `COc1ccccc1C1OC(=O)CC1C(=O)N1CCN(c2ccc(C(F)(F)F)cc2)CC1` (stereo not drawn) [CBK091313] to `O=C1CCC(=O)N1CCOc1nccnc1OC1CCN(Cc2ccc(C(F)(F)F)cc2)CC1` [CBK084341], the “% of control remaining” value rises from 107.113% to 107.38%.

Compared with `Cn1c(CNc2ccc(C(=O)O)cc2)nc2ccccc21` [CBK262501], `CCOc1ccc(C(=O)Nc2ccc(-c3nc4cc(C)c(C)cc4o3)cc2)cc1[N+](=O)[O-]` [CBK262818] is lower in “% of control remaining” value: 110.288% for the first, 100% for the second.

Compared with `Cc1nn(C)cc1C(=O)N1CCC2(C/C=C/CCOc3ccccc3C(=O)NCCCNC2=O)CC1` [CBK292154], `O=C1Cc2c(ccc3ccccc23)C2(CCN(CC3CCCCO3)CC2)N1` (stereo not drawn) [CBK039395] is higher in “% of control remaining” value: 81.3213% for the first, 110.641% for the second.

First: O=C(c1ccccc1)c1nnsc1-c1ccccc1 [CBK008193]
Second: O=C1CN(C(=O)NC(c2ccccc2)c2ccccc2)CCN1 [CBK155853]
The “% of control remaining” value of the first is lower: 120.289% for the first, 161.052% for the second.

Going from `N/C(=N\C(=O)CN1C(=O)C2CCCCC2C1=O)Nc1nc2ccccc2s1` (stereo not drawn) [CBK263877] to `CC(Cn1cnc2ccccc21)C(=O)N1CCCCC1CN(C)C` (stereo not drawn) [CBK282191], the “% of control remaining” value rises from 99.0417% to 138.499%.

First: Cc1ccccc1N1CCC(CNC(=O)CCc2ccnn2C)C1 (stereo not drawn) [CBK306543]
Second: O=C(CSc1nnc(-c2ccco2)[nH]1)Nc1cccc(Cl)c1 [CBK293990]
The “% of control remaining” value of the first is higher: 156.161% for the first, 112.591% for the second.

Compared with `O=c1[nH]c(=O)c2cc(S(=O)(=O)NC3(c4ccccc4)CCCC3)ccc2[nH]1` [CBK286378], `COCCSc1nnc(NS(=O)(=O)c2ccc(F)cc2)s1` [CBK144919] is higher in “% of control remaining” value: 110.739% for the first, 119.214% for the second.

Going from `CS(=O)(=O)Nc1cccc(C(=O)O)c1` [CBK160404] to `CCOC(=O)c1c(N)sc(C(=O)Nc2cccc([N+](=O)[O-])c2)c1C` [CBK066829], the “% of control remaining” value rises from 103.121% to 150.875%.

In the case of `CCOC(=O)C1(C2CCCCC2)CCN(C(=O)c2cccc(C(F)(F)F)c2)CC1` [CBK136920], the “% of control remaining” value is reported as 98.2335%.

Source: paper PMC12040169 (PLOS Biology, 2025)
